# In PubChem BioAssay AID504467 (National Center for Advancing Translational Sciences (NCATS), 2011):
# Among all 330,000 compounds or so, about 7,700 (2.3%) were called active. The inconclusive results got no clear call from the source; some entries with a clear call stand among them for comparison. The call rests on the fitted dose curve; in most records, active means well fitted inhibition curve with a large enough effect; inconclusive means small, poorly fitted or top-dose-only effect, or effect the other way; inactive means flat fitted curve, though single readings scatter. Where the call is inconclusive, the potency comes from a doubtful curve fit.
# Experiment: qHTS screen for small molecules that inhibit ELG1-dependent DNA repair in human embryonic kidney (HEK293T) cells expressing luciferase-tagged ELG1; further: nearly all actives have a fitted effect of over 55% in size
# Conditions: HEK293T ELG1-luciferase reporter, luminescence, 16 h, DNA damage induced by 5-fluorouridine; series mostly up to 46.1 µM
# Summary of the method: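 Step one: seed 2,000 cells per well. Step two: pin-transfer compound or DMSO alongside 5-fluorouridine. Step three: incubate 16 hr, 37 °C, 5% CO2. Step four: add ONE-Glo, wait 30 min, read luminescence.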
# Potency means the concentration at half of the fitted maximal effect.
row,Structure (SMILES),Potency
1,CCOC(=O)c1ccc2c(c1)nc(-c1ccccn1)n2CC,"inconclusive: 4.11 µM [activator, full curve]"
2,COc1ccc(-c2csc3ncnc(N4CCN(c5cccc(Cl)c5)CC4)c23)cc1,"inconclusive: 23.1 µM [inhibitor, partial curve, poor fit]"
3,O=C(NNc1ccccc1)C(=O)NNS(=O)(=O)c1ccc(CCCl)cc1,active: 6.51 µM
4,COc1ccc(OC)c(C(=O)/C=C/c2ccccc2C(F)(F)F)c1,"inconclusive: 29.1 µM [inhibitor, single point]"
5,COc1ccc(CC(=O)Nc2nncs2)cc1OC,"inconclusive: 8.2 µM [activator, partial curve, poor fit]"
6,COc1ccc(/C=C2\SC(=O)N(CC(=O)Nc3cccnc3)C2=O)cc1OC,"inconclusive: 32.6 µM [inhibitor, partial curve, poor fit]"
7,COC(=O)[C@H](C)NC(=O)c1cc2c(cn1)[nH]c1ccccc12,inactive
8,C=CCNc1nc(-c2ccccn2)nnc1-c1ccccc1,"inconclusive: 29.1 µM [inhibitor, single point]"
9,Cc1occc1-c1nnc(SCC(=O)Nc2ccccc2-c2ccccc2)n1C,"inconclusive: 8.2 µM [inhibitor, partial curve, poor fit]"
10,Cc1cc(C)cc(OCC(=O)Nc2cccc(-c3nc4ncccc4o3)c2)c1,active: 11.6 µM
11,Cc1ccc(-c2nc3ccc(Cl)cc3c(=O)n2O)cc1,"inconclusive: 16.4 µM [inhibitor, single point]"
12,Cc1ccc(C(=O)Cn2ncsc2=N)cc1,"inconclusive: 14.6 µM [activator, partial curve]"
13,O=C(c1ccco1)N1CCN(c2ncnc3sc4c(c23)CCC4)CC1,active: 14.6 µM
14,CCOC(=O)C1CCN(C(=O)c2ccccc2NC(=O)C2=C(C)OCCS2)CC1,inactive
15,C[N+](C)(C)C(Cc1ccccc1)C(=O)[O-] (stereo unspecified),inactive
16,O=C(Nc1ccc(N2CCN(C(=O)c3cccs3)CC2)cc1)c1cccc(F)c1,active: 14.6 µM
17,NC(=O)C1CC=CCC1C(=O)OCC(Cl)=C(Cl)Cl (stereo unspecified),"inconclusive: 29.1 µM [activator, single point]"
18,Cc1cc(=O)[nH]c(-c2ccc(C(F)(F)F)cc2)n1,inactive
19,CN(/N=C/c1ccncc1)C1=NCCN1,inactive
20,Cc1ccccc1CC(=O)Nc1ccc(C(=O)N2CCCC2)cc1,"inconclusive: 14.6 µM [activator, partial curve]"
21,CCN(CC(=O)Nc1cccc(OC)c1)CC(=O)Nc1ccc(Br)c(C)c1,"inconclusive: 32.6 µM [inhibitor, single point]"
22,O=C1CC(=C(c2ccccc2)c2ccccc2)C(=O)N1CCCCN1CCN(c2ccccc2)CC1,"inconclusive: 23.1 µM [inhibitor, single point]"
23,COC(=O)C1CCN(C(=O)Cc2c(OC)ccc3cc(Br)ccc23)CC1,"inconclusive: 18.3 µM [inhibitor, partial curve, poor fit]"
24,CCOC(=O)C1CCN(C(=O)c2cccc(NS(=O)(=O)c3ccc(F)c(F)c3)c2)CC1,inactive

row,Structure (SMILES),Potency
1,O=C(Nc1ccc([N+](=O)[O-])cc1)OCCc1ccccn1,"inconclusive: 1.16 µM [activator, full curve, poor fit]"
2,COc1ccc(-c2nc3ccc(C(=O)NCC(OC)OC)cc3nc2-c2ccc(OC)c(OC)c2)cc1OC,active: 1.03 µM
3,Fc1ccccc1-c1nc(NCc2ccccc2)c2ccccc2n1,"inconclusive: 18.3 µM [inhibitor, single point]"
4,CCCCC(=O)Nc1ccc2c(c1)nc(CCNC(=O)c1ccco1)n2C,"inconclusive: 23.1 µM [activator, single point]"
5,O=C(Nc1ccc(Cl)cc1)C1C2CCCCC21 (stereo unspecified),"inconclusive: 18.3 µM [activator, partial curve]"
6,O=C(Nc1nsc(-c2ccccc2)n1)c1ccc(F)cc1,"inconclusive: 5.17 µM [activator, full curve]"
7,Cc1ccc2c(C)nc(N/C(N)=N/S(=O)(=O)c3ccccc3)nc2c1,inactive
8,COc1ccc(-c2nc3ccc(C(=O)NCC(OC)OC)cc3nc2-c2ccc(OC)cc2)cc1,active: 16.4 µM
9,COC(=O)Cn1c(=NC(=O)CSC(C)=O)sc2ccccc21,"inconclusive: 32.6 µM [inhibitor, partial curve, poor fit]"
10,N#Cc1c(NC(=O)/C=C/c2ccco2)sc2c1CCCC2,"inconclusive: 5.8 µM [activator, partial curve]"
11,Cc1ccc(N(C)S(=O)(=O)c2cccc(C(=O)NC3=NCCS3)c2)cc1,"inconclusive: 23.1 µM [inhibitor, single point]"
12,Cc1ccc(C(=O)Nc2ccc(OCc3ccccc3)cc2)s1,"inconclusive: 6.51 µM [activator, full curve]"
13,COc1ccc(C(C(=O)NC2CCCCC2)N(C(=O)c2snc(C(N)=O)c2N)c2ccc(OC)cc2OC)cc1 (stereo unspecified),"inconclusive: 20.6 µM [inhibitor, partial curve, poor fit]"
14,Cc1ccccc1Nc1nnc(SCC(=O)NCC2CCCO2)s1 (stereo unspecified),inactive
15,Nc1ccccc1Nc1cc(-c2ccccc2)nn1-c1cccc(Cl)c1,"inconclusive: 25.9 µM [inhibitor, single point]"
16,O=C(Nc1cccc(C(F)(F)F)c1)c1csc(-c2ccncc2)n1,"inconclusive: 29.1 µM [inhibitor, single point]"
17,CCCN(CC(=O)Nc1cc(Cl)ccc1Cl)C(=O)c1ccc2n[nH]nc2c1,"inconclusive: 18.3 µM [inhibitor, single point]"
18,COc1ccc2[nH]c3c(c2c1)CCN1C(=O)N([C@@H](C)C(=O)NC2CCN(Cc4ccccc4)CC2)C(=O)[C@]31C,inactive
19,COc1ccc(Cn2nnnc2CN(Cc2cc3cccc(C)c3[nH]c2=O)C2CCCC2)cc1,"inconclusive: 5.17 µM [inhibitor, single point]"
20,COc1ccc(NS(=O)(=O)c2cccc(C(=O)NNC(=O)c3cncc(Br)c3)c2)cc1,inactive
21,O=C(NCCc1ccccc1)c1ccccc1NC(=O)C1CCCCC1C(=O)O (stereo unspecified),"inconclusive: 9.2 µM [activator, partial curve]"
22,CC(C)(C)c1ccc(C(=O)NCC(=O)OCC(=O)c2ccc3c(c2)-c2ccccc2C3)cc1,inactive
23,CC(=O)c1cccc(NC(=O)c2oc(C)nc2C)c1,inactive
24,Cc1ccc(N=C2NC(=O)/C(=C/c3cccnc3)S2)c(C)c1,inactive

row,Structure (SMILES),Potency
1,O=C(Nc1ccc(O)cc1)c1cc(S(=O)(=O)N2CCCC2)ccc1Cl,"inconclusive: 18.4 µM [inhibitor, single point]"
2,Cc1ccc(OCc2cc(C(=O)N3CCCCCCC3)no2)cc1C,"inconclusive: 11.6 µM [activator, partial curve]"
3,COc1ccc(/C=C/C2=CC(C)(C)NC(=S)N2)c(OC)c1,"inconclusive: 29.1 µM [inhibitor, single point]"
4,Cc1ccc(NC(c2ccccc2)c2nc3ccccc3[nH]c2=O)cc1 (stereo unspecified),"inconclusive: 14.6 µM [inhibitor, partial curve, poor fit]"
5,COc1ccc(-c2cc(C(=O)N(C)CC(=O)Nc3ccccc3Cl)c3ccccc3n2)cc1OC,active: 2.06 µM
6,CC12CN3CCN(CC(C3)/C1=N\N=C1/C3CN4CCN(C3)CC1(C)C4)C2,inactive
7,CC(C)C(=O)Nc1nnc(CCc2ccccc2)s1,"inconclusive: 18.3 µM [activator, partial curve]"
8,Cc1ccc(NC(=S)N/C(=N/S(=O)(=O)c2ccccc2)c2ccccc2)cc1,"inconclusive: 20.6 µM [activator, partial curve]"
9,O=C(c1ccccc1)N1CCC(c2nc(-c3ccc(S(=O)(=O)N4CCOCC4)cc3)no2)CC1,inactive
10,CC(=O)Nc1nc(CCN2C(=O)c3ccccc3C2=O)cs1,inactive
11,COc1ccc(S(=O)(=O)N2CCOCC2)cc1NC(=O)CO/N=C/c1ccccc1OC(F)F,"inconclusive: 23.1 µM [inhibitor, partial curve]"
12,Cc1ccc(NC(=O)COC(=O)c2cc(Cl)ccc2[N+](=O)[O-])cc1,"inconclusive: 16.4 µM [activator, partial curve, poor fit]"
13,CC1CCc2sc(C(=O)NNC(=O)c3ccncc3)cc2C1 (stereo unspecified),"inconclusive: 3.26 µM [activator, partial curve, poor fit]"
14,Cc1nc2c(sc3nc4c(cc32)COC(C)(C)C4)c(=O)n1Cc1ccccc1,"inconclusive: 32.6 µM [inhibitor, single point]"
15,CC(C)(C)N(Cc1ccccc1)C(=O)COC(=O)CCN1C(=O)C2CC=CCC2C1=O (stereo unspecified),inactive
16,COC(=O)c1ccc2c(=O)n(CCCCCC(=O)NCc3ccccn3)c(=O)[nH]c2c1,"inconclusive: 18.4 µM [inhibitor, partial curve]"
17,c1ccc(CSc2nnnn2-c2ccccc2)cc1,"inconclusive: 16.4 µM [activator, partial curve, poor fit]"
18,c1cnc2ccc3ncccc3c2c1,"inconclusive: 1.16 µM [inhibitor, single point]"
19,CCN1C(=O)/C(=C2\C=Cc3ccccc3N2CC)SC1=S,inactive
20,O=C(O)c1ccc(-c2sc(Nc3ccccc3)n[n+]2-c2ccc(F)cc2)cc1,inactive
21,CC(Oc1ccccc1)C(=O)Nc1nc2c(s1)C(=O)CC(C)(C)C2 (stereo unspecified),inactive
22,O=C(CN1C(=O)NC2(CCCCCCC2)C1=O)NCc1ccc(Cl)cc1,inactive
23,COc1ccc(N2CCN(C(=O)c3c(-c4c(F)cccc4Cl)noc3C)CC2)cc1,inactive

# Quoted from the listing:
# Cc1ccc(NC(=S)N/C(=N/S(=O)(=O)c2ccccc2)c2ccccc2)cc1 | Potency: inconclusive: 20.6 µM [activator, partial curve]
# O=C(CN1C(=O)NC2(CCCCCCC2)C1=O)NCc1ccc(Cl)cc1 | Potency: inactive
